Source: patent publication EP0528452A1, “Immunomycin enzymatic and/or microbial methylation products” (MERCK & CO. INC., priority 1991, dated 1993)
At least one compound was matched to its structure with a doubt left.

Target: T1, S-adenosyl-L-methionine: 31-O-desmethylimmunomycin O-methyltransferase (DIMT) (Streptomyces hygroscopicus subsp. ascomyceticus, UniProt Q9KID5)
T1 sequence (Q9KID5 1-260): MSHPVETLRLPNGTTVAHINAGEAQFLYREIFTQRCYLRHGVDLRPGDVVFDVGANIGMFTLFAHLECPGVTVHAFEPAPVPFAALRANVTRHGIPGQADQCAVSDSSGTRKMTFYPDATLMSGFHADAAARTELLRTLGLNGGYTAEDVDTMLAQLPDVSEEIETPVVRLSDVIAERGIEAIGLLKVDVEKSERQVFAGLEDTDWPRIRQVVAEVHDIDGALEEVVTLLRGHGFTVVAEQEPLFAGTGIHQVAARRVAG
Assay: DIMT (31-O-desmethylimmunomycin O-methyltransferase) enzyme assay with 14C-SAM
Format: biochemical, Streptomyces hygroscopicus var. ascomyceticus
Conditions: SAM as variable substrate, 25uM 31-O-desmethylimmunomycin as cosubstrate; Lineweaver-Burk plot
Experimental: The assay was carried out in 1ml. mixture containing 0.025 mM 31-desmethylimmunomycin, 1mM MgSO4 and different quantities of the enzyme source in 50mM phosphate buffer, pH 7.5. Reaction was initiated by the addition of 1 nmole of 14C-SAM (S-adenosyl-L-[methyl-14C] methionine with the specific activity of 46mCi/mmole. Incubation of the complete mixture was carried out at 34°C for 20 mins. and the reaction was terminated by the addition of ethyl acetate. Product of the reaction was extracted with 2ml. of ethyl acetate and 1ml. of the extract was used for TLC and HPLC analysis. For the analysis of the radioactive reaction product (immunomycin), the ethyl acetate extract was spiked with the standard immunomycin and subjected to the TLC with plate having plastic support. The plastic sheet was developed in chloroform:methanol (9:1) and area showing standard immunomycin under UV-light was cut and the radioactivity in the cut-strip was measured. The amount of the product formed was calculated from the measured radioactivity. […] One milliliter fractions were collected and a portion of each fraction was examined for the radioactivity. […]
Kinetic studies. […] Under the condition for measurement of the initial velocity, the apparent Km and Vmax of DIMT were determined with 31-O-desmethylimmunomycin and SAM. […]

## C[S+](CC[C@H](N)C(=O)[O-])C[C@H]1O[C@@H](n2cnc3c(N)ncnc32)[C@H](O)[C@@H]1O (stereo partly drawn) [SAM, S-adenosyl-L-methionine]
  Km: 12.5 µM
  Vmax: 100 nmol/h/mg
